Assay results taken from doi:10.1101/609503.
Results are given in words; binding and its absence hold for the method and conditions named. For part of these data: Sequences can lack the tags named with a protein. Blank lines part the entries; values can stand above or below the binder they belong to.

Chains of the proteins cited; added tags and fusions are not shown. Residues count along the entry.
UniProt P0AFB1, residues 19-294: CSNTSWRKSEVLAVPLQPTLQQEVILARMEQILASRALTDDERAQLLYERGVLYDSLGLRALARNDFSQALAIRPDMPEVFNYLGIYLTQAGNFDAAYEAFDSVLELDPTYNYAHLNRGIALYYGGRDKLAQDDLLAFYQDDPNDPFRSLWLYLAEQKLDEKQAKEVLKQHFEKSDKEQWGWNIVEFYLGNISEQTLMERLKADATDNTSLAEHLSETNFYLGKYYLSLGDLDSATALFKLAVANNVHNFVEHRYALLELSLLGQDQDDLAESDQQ

Key:
MepS (E. coli) = target: T1, MepS (E. coli) (UniProt P0AFV4); test: MST
T1 sequence (chain, NT647 RED-NHS dye on amines where used as the labelled partner (fl-MepS)): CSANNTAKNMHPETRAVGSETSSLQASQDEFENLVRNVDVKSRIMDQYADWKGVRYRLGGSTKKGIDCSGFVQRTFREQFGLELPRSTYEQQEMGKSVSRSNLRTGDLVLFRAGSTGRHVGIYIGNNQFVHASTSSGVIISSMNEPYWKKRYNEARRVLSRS

His-MepS (E. coli) = target: T2, His-MepS (E. coli) (UniProt P0AFV4); test: pull-down
T2 sequence: T1 sequence (chain, NT647 RED-NHS dye on amines where used as the labelled partner (fl-MepS))

[1] = target: His-tagged NlpI (E. coli) (UniProt P0AFB1); test: pull-down

binding (MepS (E. coli)): no binding (tested: 30 μM)
B1: PBP7 (enzyme, UniProt P0AFI5 26-310)
chain: KTAAATTASQPEIASGSAMIVDLNTNKVIYSNHPDLVRPIASISKLMTAMVVLDARLPLDEKLKVDISQTPEMKGVYSRVRLNSEISRKDMLLLALMSSENRAAASLAHHYPGGYKAFIKAMNAKAKSLGMNNTRFVEPTGLSVHNVSTARDLTKLLIASKQYPLIGQLSTTREDMATFSNPTYTLPFRNTNHLVYRDNWNIQLTKTGFTNAAGHCLVMRTVINNKPVALVVMDAFGKYTHFADASRLRTWIETGKVMPVPAAALSYKKQKAAQMAAAGQTAQND
modifications: NT647 RED-NHS dye on amines where used as the labelled partner (fl-PBP7)

binding (His-MepS (E. coli)): no binding (tested: 1-2 μM)
B2: PBP7 (untagged ligand in the pull-down with His-MepS) (enzyme, UniProt P0AFI5 26-310)
chain: B1 chain

binding [1]: no binding (tested: 1 or 2 μM)
B3: Tagless PBP5 (enzyme, UniProt P0AEB2 30-403)
chain: DDLNIKTMIPGVPQIDAESYILIDYNSGKVLAEQNADVRRDPASLTKMMTSYVIGQAMKAGKFKETDLVTIGNDAWATGNPVFKGSSLMFLKPGMQVPVSQLIRGINLQSGNDACVAMADFAAGSQDAFVGLMNSYVNALGLKNTHFQTVHGLDADGQYSSARDMALIGQALIRDVPNEYSIYKEKEFTFNGIRQLNRNGLLWDNSLNVDGIKTGHTDKAGYNLVASATEGQMRLISAVMGGRTFKGREAESKKLLTWGFRFFETVNPLKVGKEFASEPVWFGDSDRASLGVDKDVYLTIPRGRMKDLKASYVLNSSELHAPLQKNQVVGTINFQLDGKTIEQRPLVVLQEIPEGNFFGKIIDYIKLMFHHWFG
